Drawing on article PMC6617973, this text covers binding for one molecule.

These are yes or no findings as the source states them, for the method shown. Binding seen in cells or lysates may run through a third protein. Some binding calls cover weakened binding; strength is not graded here.

This assay addresses T1, vascular endothelial cadherin (mouse (endogenous in pMECs)) (UniProt P55284).
T1 sequence: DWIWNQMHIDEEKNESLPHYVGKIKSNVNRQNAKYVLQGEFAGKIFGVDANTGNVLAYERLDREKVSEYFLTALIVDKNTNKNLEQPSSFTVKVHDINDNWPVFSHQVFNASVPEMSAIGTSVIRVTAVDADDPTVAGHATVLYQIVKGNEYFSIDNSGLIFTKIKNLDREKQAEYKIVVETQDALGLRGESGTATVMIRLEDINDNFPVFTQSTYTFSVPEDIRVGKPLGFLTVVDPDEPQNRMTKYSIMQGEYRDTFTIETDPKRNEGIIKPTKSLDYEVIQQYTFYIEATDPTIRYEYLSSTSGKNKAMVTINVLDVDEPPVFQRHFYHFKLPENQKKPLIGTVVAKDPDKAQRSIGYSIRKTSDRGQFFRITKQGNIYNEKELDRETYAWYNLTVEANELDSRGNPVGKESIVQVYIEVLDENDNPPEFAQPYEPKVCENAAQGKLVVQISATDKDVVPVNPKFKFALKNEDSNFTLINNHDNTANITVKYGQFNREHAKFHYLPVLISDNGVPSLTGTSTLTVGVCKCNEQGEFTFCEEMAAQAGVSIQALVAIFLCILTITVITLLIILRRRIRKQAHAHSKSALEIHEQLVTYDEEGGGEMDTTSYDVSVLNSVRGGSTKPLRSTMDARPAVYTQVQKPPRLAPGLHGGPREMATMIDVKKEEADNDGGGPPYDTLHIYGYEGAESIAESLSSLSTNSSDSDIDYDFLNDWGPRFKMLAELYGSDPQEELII
Nature of the assay: co-IP; VE-Cadherin immunoprecipitates from lysates of F/F and BRAFΔ/Δ pMEC monolayers; Protein G Sepharose with antibody, 4 °C overnight; 25 mM HEPES, 150 mM NaCl, 1 mM EGTA, 0.5% NP-40, 10% glycerol; immunoblot. A general note: In western blotting, separated proteins are transferred to a membrane and probed.

B1: p120 catenin (protein, UniProt P30999 1-938)
chain: MDDSEVESTASILASVKEQEAQFEKLTRALEEERRHVSAQLERVRVSPQDANSLMANGTLTRRHQNGRFVGDADLERQKFSDLKLNGPQDHNHLLYSTIPRMQEPGQIVETYTEEDPEGAMSVVSVETTDDGTTRRTETTVKKVVKTMTTRTVQPVPMGPDGLPVDASAVSNNYIQTLGRDFRKNGNGGPGPYVGQAGTATLPRNFHYPPDGYGRHYEDGYPGGSDNYGSLSRVTRIEERYRPSMEGYRAPSRQDVYGPQPQVRVGGSSVDLHRFHPEPYGLEDDQRSMGYDDLDYGMMSDYGTARRTGTPSDPRRRLRSYEDMIGEEVPPDQYYWAPLAQHERGSLASLDSLRKGMPPPSNWRQPELPEVIAMLGFRLDAVKSNAAAYLQHLCYRNDKVKTDVRKLKGIPILVGLLDHPKKEVHLGACGALKNISFGRDQDNKIAIKNCDGVPALVRLLRKARDMDLTEVITGTLWNLSSHDSIKMEIVDHALHALTDEVIIPHSGWEREPNEDCKPRHIEWESVLTNTAGCLRNVSSERSEARRKLRECDGLVDALIFIVQAEIGQKDSDSKLVENCVCLLRNLSYQVHREIPQAERYQEALPTVANSTGPHAASCFGAKKGKDEWFSRGKKPTEDPANDTVDFPKRTSPARGYELLFQPEVVRIYISLLKESKTPAILEASAGAIQNLCAGRWTYGRYIRSALRQEKALSAIAELLTSEHERVVKAASGALRNLAVDARNKELIGKHAIPNLVKNLPGGQQNSSWNFSEDTVVSILNTINEVIAENLEAAKKLRETQGIEKLVLINKSGNRSEKEVRAAALVLQTIWGYKELRKPLEKEGWKKSDFQVNLNNASRSQSSHSYDDSTLPLIDRNQKSDKKPDREEIPMSNMGSNTKSLDNNYSTLNERGDHNRTLDRSGDLGDMEPLKGAPLMQKI
Take B1: the binding result is “binds”.
